At least one structure is not confirmed: it was looked up by name or label, or the drawing left a doubt.
Molecular target: immobilized Aβ fibrils (Homo sapiens, UniProt P05067)
Experiment: FAC-MS assay of free Aβ monomer (indicator) binding to immobilized Aβ fibrils in the presence of test compounds
Conditions: FAC-MS screen; shift of free Aβ monomer breakthrough on immobilized Aβ fibrils in presence of compound; scale not given

Chains of the proteins cited; added tags and fusions are not shown. Residues count along the entry.
UniProt P05067, 672-713 limits assumed: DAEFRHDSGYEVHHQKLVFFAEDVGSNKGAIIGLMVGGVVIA

CC12CCC(C(=O)O)(CC1O)C2(C)C (stereo not shown)
Aβ Shift: 1
